These are yes or no findings as the source states them, for the method shown. Some results given as binding are weak or reduced against the parent protein; the word gives no strength.

By UniProt entry, the sequences of proteins in these tests, tags left out. Where a name states a change or a piece, a line headed by the entry shows the natural chain unless it says otherwise. Chains listed by the source or under a name are the forms on record and can include a tag or linker.
UniProt Q02248: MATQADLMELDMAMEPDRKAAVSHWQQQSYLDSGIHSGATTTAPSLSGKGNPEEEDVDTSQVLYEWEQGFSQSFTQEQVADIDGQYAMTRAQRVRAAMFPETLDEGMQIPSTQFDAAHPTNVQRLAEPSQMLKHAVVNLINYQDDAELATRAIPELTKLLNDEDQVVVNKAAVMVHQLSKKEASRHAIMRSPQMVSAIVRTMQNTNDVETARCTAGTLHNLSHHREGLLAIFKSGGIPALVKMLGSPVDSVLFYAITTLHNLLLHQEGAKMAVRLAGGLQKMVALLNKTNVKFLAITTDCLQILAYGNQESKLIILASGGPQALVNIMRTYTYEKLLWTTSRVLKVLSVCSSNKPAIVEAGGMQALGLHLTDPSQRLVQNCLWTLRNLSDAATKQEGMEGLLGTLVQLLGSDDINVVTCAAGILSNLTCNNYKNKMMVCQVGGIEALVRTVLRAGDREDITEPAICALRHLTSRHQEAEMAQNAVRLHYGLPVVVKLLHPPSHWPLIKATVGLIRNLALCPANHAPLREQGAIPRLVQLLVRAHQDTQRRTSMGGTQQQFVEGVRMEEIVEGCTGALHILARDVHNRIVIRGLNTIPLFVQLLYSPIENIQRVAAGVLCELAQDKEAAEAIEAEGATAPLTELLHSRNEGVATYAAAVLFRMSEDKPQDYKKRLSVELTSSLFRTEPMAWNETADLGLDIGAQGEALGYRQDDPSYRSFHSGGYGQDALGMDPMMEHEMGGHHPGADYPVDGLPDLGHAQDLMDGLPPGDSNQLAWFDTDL
UniProt P26231: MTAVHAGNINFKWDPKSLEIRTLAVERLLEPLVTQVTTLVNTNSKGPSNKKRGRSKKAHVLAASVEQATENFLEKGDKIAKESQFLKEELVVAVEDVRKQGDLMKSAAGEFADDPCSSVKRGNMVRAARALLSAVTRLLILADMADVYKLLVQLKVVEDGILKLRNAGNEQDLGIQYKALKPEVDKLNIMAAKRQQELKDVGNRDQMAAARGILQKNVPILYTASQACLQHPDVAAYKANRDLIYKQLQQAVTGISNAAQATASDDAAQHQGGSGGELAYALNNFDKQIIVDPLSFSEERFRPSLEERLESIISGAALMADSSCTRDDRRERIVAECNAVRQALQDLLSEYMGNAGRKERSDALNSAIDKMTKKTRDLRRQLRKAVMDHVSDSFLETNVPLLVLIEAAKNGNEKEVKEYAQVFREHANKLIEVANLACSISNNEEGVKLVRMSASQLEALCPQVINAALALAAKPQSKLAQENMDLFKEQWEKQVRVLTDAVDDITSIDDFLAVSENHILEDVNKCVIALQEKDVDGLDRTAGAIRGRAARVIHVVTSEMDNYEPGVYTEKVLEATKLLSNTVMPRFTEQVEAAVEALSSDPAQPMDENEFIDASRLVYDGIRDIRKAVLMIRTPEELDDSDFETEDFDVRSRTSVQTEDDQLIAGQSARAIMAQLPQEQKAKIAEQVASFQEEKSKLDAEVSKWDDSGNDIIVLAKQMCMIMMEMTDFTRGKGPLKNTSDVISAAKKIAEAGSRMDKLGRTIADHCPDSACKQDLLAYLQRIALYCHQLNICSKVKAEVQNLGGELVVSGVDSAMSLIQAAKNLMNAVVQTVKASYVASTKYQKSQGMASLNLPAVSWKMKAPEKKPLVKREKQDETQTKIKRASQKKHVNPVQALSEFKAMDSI
αE-catenin α(CA), as it stands in the tetramer and pentamer (P26231, form named): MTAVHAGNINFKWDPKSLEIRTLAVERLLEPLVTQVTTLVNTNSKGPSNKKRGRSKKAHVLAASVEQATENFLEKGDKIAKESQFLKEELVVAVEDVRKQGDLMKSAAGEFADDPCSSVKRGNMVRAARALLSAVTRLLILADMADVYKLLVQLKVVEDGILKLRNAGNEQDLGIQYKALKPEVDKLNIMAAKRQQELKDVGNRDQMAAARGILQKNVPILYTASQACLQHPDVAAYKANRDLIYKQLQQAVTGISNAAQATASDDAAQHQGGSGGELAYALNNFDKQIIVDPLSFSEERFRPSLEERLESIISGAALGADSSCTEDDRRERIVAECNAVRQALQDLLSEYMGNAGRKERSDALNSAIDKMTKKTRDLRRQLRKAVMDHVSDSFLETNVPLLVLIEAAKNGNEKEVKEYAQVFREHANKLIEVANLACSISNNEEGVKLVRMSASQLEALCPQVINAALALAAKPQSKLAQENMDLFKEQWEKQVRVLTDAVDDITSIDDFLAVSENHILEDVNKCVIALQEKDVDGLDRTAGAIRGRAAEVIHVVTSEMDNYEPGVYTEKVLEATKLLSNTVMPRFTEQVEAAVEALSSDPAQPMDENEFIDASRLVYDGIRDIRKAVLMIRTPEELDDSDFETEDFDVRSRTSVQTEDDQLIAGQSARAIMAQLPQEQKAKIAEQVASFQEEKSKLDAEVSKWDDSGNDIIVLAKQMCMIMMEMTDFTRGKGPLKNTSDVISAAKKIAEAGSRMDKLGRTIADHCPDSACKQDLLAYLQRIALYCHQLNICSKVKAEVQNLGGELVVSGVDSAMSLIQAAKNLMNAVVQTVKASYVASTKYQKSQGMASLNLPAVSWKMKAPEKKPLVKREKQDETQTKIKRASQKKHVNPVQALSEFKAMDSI
vinculin(T12) (P18206-2, form named): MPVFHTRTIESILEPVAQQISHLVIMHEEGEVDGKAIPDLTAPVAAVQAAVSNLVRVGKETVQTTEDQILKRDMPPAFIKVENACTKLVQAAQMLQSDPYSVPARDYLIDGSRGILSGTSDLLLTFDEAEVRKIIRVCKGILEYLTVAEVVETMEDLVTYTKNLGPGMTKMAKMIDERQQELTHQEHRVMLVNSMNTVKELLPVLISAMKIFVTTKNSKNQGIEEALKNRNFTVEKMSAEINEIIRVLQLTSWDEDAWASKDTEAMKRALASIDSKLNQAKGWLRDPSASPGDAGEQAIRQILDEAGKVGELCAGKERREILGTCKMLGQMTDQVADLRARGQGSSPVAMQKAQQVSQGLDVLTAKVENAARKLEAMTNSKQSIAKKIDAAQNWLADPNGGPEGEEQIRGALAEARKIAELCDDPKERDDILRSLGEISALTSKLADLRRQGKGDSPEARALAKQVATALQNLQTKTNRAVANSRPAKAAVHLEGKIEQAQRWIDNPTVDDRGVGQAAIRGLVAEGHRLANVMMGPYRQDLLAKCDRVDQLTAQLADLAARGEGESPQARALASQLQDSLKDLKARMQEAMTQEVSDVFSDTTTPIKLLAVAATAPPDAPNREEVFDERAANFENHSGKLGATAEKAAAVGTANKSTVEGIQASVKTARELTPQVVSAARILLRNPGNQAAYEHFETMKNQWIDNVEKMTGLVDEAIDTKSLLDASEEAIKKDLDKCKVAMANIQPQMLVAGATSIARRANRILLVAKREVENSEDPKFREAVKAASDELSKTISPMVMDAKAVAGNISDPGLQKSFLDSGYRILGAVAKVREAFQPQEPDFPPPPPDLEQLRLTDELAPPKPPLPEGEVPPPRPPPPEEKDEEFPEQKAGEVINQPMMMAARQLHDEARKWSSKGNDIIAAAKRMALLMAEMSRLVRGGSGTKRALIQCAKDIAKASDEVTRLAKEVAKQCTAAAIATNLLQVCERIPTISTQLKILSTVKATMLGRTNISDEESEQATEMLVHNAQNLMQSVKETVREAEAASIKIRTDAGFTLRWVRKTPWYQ

The target in assay [1] is full-length β-catenin (mouse) (UniProt Q02248). The assay can be described thus: co-purification of co-expressed proteins (affinity, size exclusion); co-expressed in FreeStyle 293-F; trimer: anti-GFP beads, TEV, MonoQ, Superdex 200; tetramer: Flag M2 beads then anti-GFP beads, TEV, Superose 6; 10 mM tris-HCl pH 8.0, 100 mM NaCl, 3 mM DTT. For orientation: Size exclusion chromatography separates by hydrodynamic size, large species first.

Assay [2] concerns the target αE-catenin α(CA), as it stands in the tetramer and pentamer (mouse) (UniProt P26231). The description is as above.

On to “full-length αE-catenin (from UniProt P26231 1-906)”, for which, in assay [1], the binding result is given as “binds”.

Consider “vinculin(T12) (from UniProt P18206-2 1-1066)”, for which, in assay [2], the binding result was “binds”.

These data come from publication PMC11827635 (Science Advances, 2025).
